Measurements reported in PubChem BioAssay AID1259254 (NCATS, 2017).

Purpose: 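Finding genes that stop cells copying their DNA twice in one cycle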 (primary screen)
Cells: human HCT116 colorectal cancer cells
Reagents: single siRNA against human genes
Timing: 3 days
Measured: 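Nuclei stained with Hoechst and imaged; cell-cycle phase assigned by DNA content; G2 share scaled per plate, non-targeting siRNA 0%, GMNN siRNA 100%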
Scale: G2 robust z-score and G2 cells, % of GMNN control: higher = more G2 cells, more excess DNA replication; raw share of cells in G2: higher = larger share of cells with G2 DNA content
Rule for the call: 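Active siRNAs have a G2 robust z of 5 or more median absolute deviations over the median, which in these data means about 38% or higher of GMNN control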
Here is one part, drawn at random, of about 59,000 deposited reagents. Over the whole deposit, about 1,550 (2.6%) are marked active. 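G2 share is only a proxy for re-replication; each gene was hit by three separate siRNAs, and active genes were retested.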 Raw values are not corrected between plates. Entries without a mark were called inactive. The numbers tell different reagents against one gene apart. Reagent sequences are not shown. The record does not give: the amount of reagent.

The first 5 entries, to show the layout:
| target | reagent | G2 robust z-score | G2 cells, % of GMNN control | raw share of cells in G2 (%) |
| --- | --- | --- | --- | --- |
| SPATA31E2P (SPATA31 subfamily E member 2, pseudogene) | 1 | 2.36 | 19.5 | 10.5 |
| SPATA31E2P (SPATA31 subfamily E member 2, pseudogene) | 2 | -0.607 | -1.3 | 2.63 |
| SPATA31E2P (SPATA31 subfamily E member 2, pseudogene) | 3 | 2.2 | 18.4 | 10.7 |
| PAEP (progestagen associated endometrial protein) | 1 | 3.79 | 29.7 | 16.4 |
| PAEP (progestagen associated endometrial protein) | 2 | -0.691 | -1.9 | 3.98 |

The list itself, from the first entry:
| target | reagent | G2 robust z-score | G2 cells, % of GMNN control | raw share of cells in G2 (%) |
| --- | --- | --- | --- | --- |
| SPATA31E2P (SPATA31 subfamily E member 2, pseudogene) | 1 | 2.36 | 19.5 | 10.5 |
| SPATA31E2P (SPATA31 subfamily E member 2, pseudogene) | 2 | -0.607 | -1.3 | 2.63 |
| SPATA31E2P (SPATA31 subfamily E member 2, pseudogene) | 3 | 2.2 | 18.4 | 10.7 |
| PAEP (progestagen associated endometrial protein) | 1 | 3.79 | 29.7 | 16.4 |
| PAEP (progestagen associated endometrial protein) | 2 | -0.691 | -1.9 | 3.98 |
| PAEP (progestagen associated endometrial protein) | 3 | 0.961 | 9.73 | 6.52 |
| ISLR (immunoglobulin superfamily containing leucine rich repeat) | 1 | -0.511 | -0.63 | 3.97 |
| ISLR (immunoglobulin superfamily containing leucine rich repeat) | 2 | 6.31 (active) | 47.3 | 22.2 |
| ISLR (immunoglobulin superfamily containing leucine rich repeat) | 3 | -0.695 | -1.92 | 4.95 |
| MEN1 (menin 1) | 1 | 0.24 | 4.65 | 6.95 |
| MEN1 (menin 1) | 2 | -0.705 | -1.99 | 3.44 |
| MEN1 (menin 1) | 3 | -1.05 | -4.44 | 1.75 |
| CHL1-AS2 (CHL1 antisense RNA 2) | 1 | -0.891 | -3.3 | 2.18 |
| CHL1-AS2 (CHL1 antisense RNA 2) | 2 | -0.264 | 1.11 | 4.06 |
| CHL1-AS2 (CHL1 antisense RNA 2) | 3 | 2.63 | 21.4 | 11 |
| ZNF599 (zinc finger protein 599) | 1 | -0.413 | 0.0625 | 3.11 |
| ZNF599 (zinc finger protein 599) | 2 | 0.846 | 8.92 | 6.26 |
| ZNF599 (zinc finger protein 599) | 3 | 1.53 | 13.8 | 8.35 |
| ENOSF1 (enolase superfamily member 1) | 1 | -1.11 | -4.85 | 4.31 |
| ENOSF1 (enolase superfamily member 1) | 2 | 2.34 | 19.4 | 11.4 |
| ENOSF1 (enolase superfamily member 1) | 3 | 3.34 | 26.4 | 15.4 |
| LECT2 (leukocyte cell derived chemotaxin 2) | 1 | 1.71 | 15 | 11.2 |
| LECT2 (leukocyte cell derived chemotaxin 2) | 2 | 0.935 | 9.55 | 6.34 |
| LECT2 (leukocyte cell derived chemotaxin 2) | 3 | -0.406 | 0.111 | 5.51 |
| VIPR2 (vasoactive intestinal peptide receptor 2) | 1 | 2.54 | 20.8 | 13.3 |
| VIPR2 (vasoactive intestinal peptide receptor 2) | 2 | -0.399 | 0.161 | 4.57 |
| VIPR2 (vasoactive intestinal peptide receptor 2) | 3 | 1.2 | 11.4 | 6.78 |
| SFTA2 (surfactant associated 2) | 1 | -0.744 | -2.27 | 2.56 |
| SFTA2 (surfactant associated 2) | 2 | -0.0193 | 2.83 | 4.15 |
| SFTA2 (surfactant associated 2) | 3 | 0.419 | 5.91 | 6.51 |
| RERGL (RERG like) | 1 | 0.931 | 9.52 | 8.39 |
| RERGL (RERG like) | 2 | 0.224 | 4.55 | 6.29 |
| RERGL (RERG like) | 3 | 0.196 | 4.35 | 3.57 |
| AKAP6 (A-kinase anchoring protein 6) | 1 | -0.342 | 0.564 | 3.39 |
| AKAP6 (A-kinase anchoring protein 6) | 2 | 4.42 | 34 | 18.6 |
| AKAP6 (A-kinase anchoring protein 6) | 3 | -0.324 | 0.686 | 5.46 |
| LOC400756 (retired record) | 1 | -0.447 | -0.176 | 4.72 |
| LOC400756 (retired record) | 2 | 1.75 | 15.3 | 9.38 |
| LOC400756 (retired record) | 3 | -0.155 | 1.88 | 4.26 |
| ENOX2 (ecto-NOX disulfide-thiol exchanger 2) | 1 | 0.145 | 3.98 | 7.43 |
| ENOX2 (ecto-NOX disulfide-thiol exchanger 2) | 2 | 0.0759 | 3.5 | 7.86 |
| ENOX2 (ecto-NOX disulfide-thiol exchanger 2) | 3 | -0.662 | -1.69 | 3.29 |
| CDC6 (cell division cycle 6) | 1 | 2.47 | 20.3 | 11.1 |
| CDC6 (cell division cycle 6) | 2 | 0.303 | 5.1 | 6.86 |
| CDC6 (cell division cycle 6) | 3 | 3.62 | 28.5 | 15.1 |
| SOX8 (SRY-box transcription factor 8) | 1 | 5.58 (active) | 42.2 | 25.1 |
| SOX8 (SRY-box transcription factor 8) | 2 | -0.246 | 1.23 | 4.7 |
| SOX8 (SRY-box transcription factor 8) | 3 | -0.707 | -2.01 | 3.03 |
| LIN7C (lin-7 cell polarity scaffold C) | 1 | -0.504 | -0.578 | 6.18 |
| LIN7C (lin-7 cell polarity scaffold C) | 2 | -0.197 | 1.58 | 5 |
| LIN7C (lin-7 cell polarity scaffold C) | 3 | -1.1 | -4.77 | 2.35 |
| HBE1 (hemoglobin subunit epsilon 1) | 1 | -0.56 | -0.971 | 5.31 |
| HBE1 (hemoglobin subunit epsilon 1) | 2 | 2.92 | 23.5 | 12.8 |
| HBE1 (hemoglobin subunit epsilon 1) | 3 | 0.0962 | 3.64 | 6.37 |
| GTF2IP20 (general transcription factor IIi pseudogene 20) | 1 | -0.554 | -0.933 | 3.26 |
| GTF2IP20 (general transcription factor IIi pseudogene 20) | 2 | -0.531 | -0.767 | 3.13 |
| GTF2IP20 (general transcription factor IIi pseudogene 20) | 3 | 2.24 | 18.8 | 9.49 |
| INIP (INTS3 and NABP interacting protein) | 1 | -1.02 | -4.24 | 2.68 |
| INIP (INTS3 and NABP interacting protein) | 2 | 2.8 | 22.7 | 15.3 |
| INIP (INTS3 and NABP interacting protein) | 3 | -0.307 | 0.804 | 3.28 |
| S1PR3 (sphingosine-1-phosphate receptor 3) | 1 | 1.25 | 11.7 | 10 |
| S1PR3 (sphingosine-1-phosphate receptor 3) | 2 | -0.268 | 1.08 | 4.89 |
| S1PR3 (sphingosine-1-phosphate receptor 3) | 3 | -0.852 | -3.03 | 2.34 |
| S1PR3 (sphingosine-1-phosphate receptor 3) | 4 | -0.433 | -0.079 | 3.61 |
| S1PR3 (sphingosine-1-phosphate receptor 3) | 5 | 0.132 | 3.9 | 4.55 |
| S1PR3 (sphingosine-1-phosphate receptor 3) | 6 | -0.437 | -0.105 | 3.23 |
| DAPK3 (death associated protein kinase 3) | 1 | -0.854 | -3.04 | 4.6 |
| DAPK3 (death associated protein kinase 3) | 2 | -0.939 | -3.64 | 4.18 |
| DAPK3 (death associated protein kinase 3) | 3 | -0.73 | -2.17 | 3.26 |
| B3GNT3 | 1 | 0.712 | 7.98 | 9.16 |
| B3GNT3 | 2 | -0.74 | -2.24 | 5.59 |
| B3GNT3 | 3 | -0.312 | 0.769 | 4.09 |
| EPCAM (epithelial cell adhesion molecule) | 1 | 0.518 | 6.61 | 7.78 |
| EPCAM (epithelial cell adhesion molecule) | 2 | -0.756 | -2.35 | 3.29 |
| EPCAM (epithelial cell adhesion molecule) | 3 | 0.503 | 6.5 | 5.7 |
| CAMKK2 (calcium/calmodulin dependent protein kinase kinase 2) | 1 | -1.62 | -8.45 | 2.96 |
| CAMKK2 (calcium/calmodulin dependent protein kinase kinase 2) | 2 | -0.286 | 0.956 | 3.99 |
| CAMKK2 (calcium/calmodulin dependent protein kinase kinase 2) | 3 | -0.127 | 2.07 | 5.95 |
| CCL19 (C-C motif chemokine ligand 19) | 1 | 0.263 | 4.81 | 5.55 |
| CCL19 (C-C motif chemokine ligand 19) | 2 | 1.53 | 13.7 | 10.3 |
| CCL19 (C-C motif chemokine ligand 19) | 3 | -0.786 | -2.57 | 3.67 |
| PCDHGB2 (protocadherin gamma subfamily B, 2) | 1 | 0.868 | 9.07 | 10.4 |
| PCDHGB2 (protocadherin gamma subfamily B, 2) | 2 | -0.696 | -1.93 | 3.75 |
| PCDHGB2 (protocadherin gamma subfamily B, 2) | 3 | 0.296 | 5.05 | 6.44 |
| EIF2S2P4 | 1 | -0.0956 | 2.29 | 4.41 |
| EIF2S2P4 | 2 | 1.42 | 13 | 7.44 |
| EIF2S2P4 | 3 | -0.532 | -0.775 | 3.31 |
